Source: PubChem BioAssay AID493014 (National Center for Advancing Translational Sciences (NCATS), 2011)
The whole screen tested about 340,000 compounds, of which about 170 (0.05%) were called active. Inconclusive means that the source gave no clear call. Such entries were picked first, then a sample of the others. Calls come from the whole dose curve; as a rule, active = well fitted inhibition curve with a large enough effect in the signal ratio, with a control signal flat (not every such curve was filed as active); inconclusive = small, poorly fitted or top-dose-only effect, or effect the other way, or a change in a side signal; inactive = flat fitted curve, though single readings scatter; the % refers to the signal ratio. Where the call is inconclusive, the potency comes from a doubtful curve fit.

Assay: qHTS Assay to Find Inhibitors of Chronic Active B-Cell Receptor Signaling;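 for activity change, negative = inhibition: plate controls were basal doxycycline-induced cells for no effect and cells given 10 µM MG132 for full effect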
Conditions: ABC-DLBCL IkBa-CBG/CBR reporter, luminescence ratio (green luciferase fused to IkBa over red control in TMD8 lymphoma cells), 4 h; activity change, negative = inhibition: at 46.1 µM (top of the series)
Method in brief: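 Compounds up to 46 uM were incubated four hours with TMD8 cells whose green CBG68 luciferase is fused to IkappaBalpha; red CBR luminescence normalised the signal, and concentration-effect curves were fitted to fusion, red and ratio data.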
Potency is the fitted concentration of half-maximal effect.

SMILES | activity change, negative = inhibition | Potency
COc1cccc(N2CCN(C(=O)CCC(=O)N3CCOc4ccc(C)cc43)CC2)c1 | inconclusive: 0.969% | 
COc1ccc(NC(=O)CN(C)C(=O)CNC(=O)C2CCCCC2)cc1 | inconclusive: 3.39% | 
COc1ccc(-c2noc(CSc3nc(-c4ccccc4)cc(=O)[nH]3)n2)cc1 | inactive: -18.9% | 
COc1ccc(C(=O)C2CCCN(Cc3ccc4nonc4c3)C2)cc1OC (stereo not drawn) | inconclusive: -0.284% | 
O=C(NCc1n[nH]c(=S)n1-c1cccc(Cl)c1)c1cccs1 | inconclusive: 11.1% | 
COc1cc(NC(=O)CC2C(=O)N(c3ccccc3)C(=O)N2Cc2ccc(F)cc2)cc(OC)c1 (stereo not drawn) | inconclusive: 4.94% | 
C[C@@H]1CN([C@H](C)CO)C(=O)Cc2cc(NC(=O)Nc3ccccc3)ccc2O[C@@H]1CN(C)C(=O)Nc1ccc2c(c1)OCO2 | inconclusive: -0.172% | 
O=C(N/N=C/C1CCCCC1)c1ccccn1 |  | inconclusive: 35.5 µM [falling, single point]
COc1ccc(CN(C)CC(O)COC(c2ccc(OC)cc2)c2ccc(OC)cc2)cc1 (stereo not drawn) |  | inconclusive: 12.6 µM [falling, partial curve, poor fit]
CCOc1cc(C2C(C(=O)N3CCOCC3)=C(C)NC3=C2C(=O)CCC3)ccc1O (stereo not drawn) | inconclusive: 9.98% | 
c1ccc2c(-c3nc(C4CCCCC4)no3)cc(-c3ccncc3)nc2c1 | inconclusive: 6.7% | 
Cc1cccc(NC(=S)NCC(C)CSc2ccc(Cl)cc2)c1 (stereo not drawn) | inconclusive: -3.78% | 
COc1ccc(OC)c(NC(=O)CSc2nc(=O)n(CCN(C)C)c3c2CCC3)c1 | inconclusive: 6.78% | 
CN(C)S(=O)(=O)c1cccc(NC(=O)COc2cccc(C#N)c2)c1 | inconclusive: 1.04% | 
CCCCNC(=O)C1CCCN(S(=O)(=O)c2c(C)noc2/C=C/c2cccs2)C1 (stereo not drawn) | inconclusive: 0.974% | 
O=C(NCC1COc2ccccc2O1)c1cccc(S(=O)(=O)N2CCOCC2)c1 (stereo not drawn) | inactive: 0.817% | 
COc1ccccc1C(C)NCC(=O)Nc1c(F)cccc1F (stereo not drawn) |  | inconclusive: 4.47 µM [falling, full curve, poor fit]
O=C(c1ccco1)N1CCN(C(=O)c2ccc(-c3ccc([N+](=O)[O-])cc3)o2)CC1 | inactive: -5.58% | 
CC1CCN(C(=O)c2cc(-c3ccccc3O)on2)CC1 | inconclusive: 3.78% | 
Cc1occc1-c1nnc(SCC(=O)c2ccc(F)cc2)o1 |  | inconclusive: 23.1 µM [falling, single point]
O=C(Nc1ccccc1C(=O)N1CCOCC1)c1cccc(S(=O)(=O)N2CCCC2)c1 | inconclusive: 15.5% | 

SMILES | activity change, negative = inhibition | Potency
CC(=O)c1cccc(NC(=O)c2cc(Cl)sc2Cl)c1 |  | inconclusive: 3.66 µM [falling, partial curve, poor fit]
Cc1csc(NC(=O)c2ccc(Br)s2)n1 | inconclusive: -16.2% | 
COc1ccc(-c2cc(N3C(=O)Nc4ccccc4N3O)n[nH]2)cc1 | inconclusive: -6.8% | 
Cc1c([N+](=O)[O-])c(C(=O)Sc2ccc(Br)cc2)nn1C | inconclusive: -9.19% | 
COCCCN1C(=O)C(=O)/C(=C(/O)c2ccc(OC)cc2)C1c1cccc(OC)c1 (stereo not drawn) | inactive: 0.0507% | 
O=C(NCc1ccc2c(c1)OCO2)C(=O)Nc1ccccc1 |  | inconclusive: 25.1 µM [falling, single point]
Cc1nn(Cc2ccc(Cl)cc2Cl)c(C)c1NC(=O)CCl |  | inconclusive: 4.11 µM [falling, full curve]
CCOc1ccc(N(CC(=O)NCC2CCCO2)C(=O)CCC(=O)Nc2nccs2)cc1 (stereo not drawn) | inactive: 13.7% | 
Cc1cc(C(=O)OCC(=O)Nc2cccc(S(=O)(=O)N(C)C)c2)c(C)o1 |  | inconclusive: 15.8 µM [falling, partial curve]
O=[N+]([O-])c1ccc2c(c1)/C(=N\O)c1ccccc1-2 | inconclusive: -5.99% | 
COc1ccccc1/C=C/C=N/NC(=O)CCC1C(=O)NN=C1C (stereo not drawn) |  | inconclusive: 13 µM [falling, partial curve]
COc1ccc(C(=O)NC(=S)Nc2ccccc2N2CCOCC2)cc1Br | inconclusive: 8.08% | 
O=C(Nc1ccccc1N1CCN(C(=O)c2ccccc2)CC1)c1cccc(Cl)c1 | inconclusive: 6.95% | 
Cc1c(C)n(C)c2ccc([N+](=O)[O-])cc12 |  | inconclusive: 6.31 µM [falling, single point]
Clc1ccc(-c2nc(C3CCCCC3)no2)cc1 | inconclusive: 10.1% | 
Cn1cccc1Cc1nnc(SCC(=O)Nc2ccc3c(c2)OCCO3)n1-c1ccc(F)cc1 | inconclusive: 1.23% | 
O=C(CSCc1ccc(F)cc1)N1CCN(c2ccccc2F)CC1 | inconclusive: 16.9% | 
O=C(/C=C1\SC(=O)N(CC(=O)Nc2ccc(F)cc2)C1=O)Nc1ccc(Cl)cc1 |  | inconclusive: 2.91 µM [falling, partial curve]
COc1ccc(OC)c(C=NNC(=O)c2ccc(NS(=O)(=O)c3cccs3)cc2)c1 |  | inconclusive: 18.4 µM [falling, partial curve]
CCOc1ccccc1N1CCN(Cc2cccc(OC)c2O)CC1 | inconclusive: -1.8% | 
C=CCN=C1SCC(=O)N1S(=O)(=O)c1ccc(C)cc1 | inconclusive: 4.6% | 

Quoted from the listing.
activity change, negative = inhibition, Cn1cccc1Cc1nnc(SCC(=O)Nc2ccc3c(c2)OCCO3)n1-c1ccc(F)cc1 reads inconclusive: 1.23%
Potency, Cc1nn(Cc2ccc(Cl)cc2Cl)c(C)c1NC(=O)CCl reads inconclusive: 4.11 µM [falling, full curve]
activity change, negative = inhibition, CCOc1ccccc1N1CCN(Cc2cccc(OC)c2O)CC1 reads inconclusive: -1.8%
activity change, negative = inhibition, O=C(Nc1ccccc1N1CCN(C(=O)c2ccccc2)CC1)c1cccc(Cl)c1 reads inconclusive: 6.95%
Potency, Cc1c(C)n(C)c2ccc([N+](=O)[O-])cc12 reads inconclusive: 6.31 µM [falling, single point]

The list continues.

SMILES | activity change, negative = inhibition | Potency
CN(C)S(=O)(=O)c1cccc(-c2nnc(SCC(=O)NCCCCCC(=O)O)n2-c2ccc(F)cc2)c1 | inconclusive: 1.92% | 
CCC1(c2ccc(Cl)cc2)NC(=O)N(CC(=O)NCc2ccc(F)cc2)C1=O (stereo not drawn) | inconclusive: 0.219% | 
Cc1ccc(-n2c(-c3cnccn3)n[nH]c2=S)cc1 | inconclusive: -0.303% | 
Cc1cc(OCCCCOc2ccc(C#N)cc2)ccc1[N+](=O)[O-] | inconclusive: 9.72% | 
Cc1cccc(N2CCN(C(=S)NCCc3ccccc3)CC2)c1C | inconclusive: 7.68% | 
C=CCn1c2ccccc2c(=O)c2cc(C#Cc3ccccn3)ccc21 | inconclusive: 10.3% | 
COc1cccc(NC(=O)CSc2nc3ccccc3nc2N2CCCC2)c1 | inconclusive: 0.267% | 
COC(=O)C1=C(C)Nc2[nH]c(=S)[nH]c(=O)c2C1c1ccc(O)cc1 (stereo not drawn) | inconclusive: 2.75% | 
CC(C)c1ccc(/C=N/n2c(-c3ccccc3)n[nH]c2=S)cc1 | inconclusive: 15.6% | 
COc1ccc2nc3c(c(-c4ccccc4)c2c1)CCC3 | inconclusive: 1.16% | 
O=C(N/N=C\c1ccccc1OCc1ccccc1)c1ccco1 |  | inconclusive: 16.4 µM [falling, partial curve, poor fit]
CSc1ccc(CN(C)C(=O)c2cccc(S(=O)(=O)NCc3ccccc3)c2)cc1 | inconclusive: -19.7% | 
O=C(COc1ccc2c3c(c(=O)oc2c1)CCC3)NCCCN1CCCC1=O | inconclusive: 1.36% | 
COc1cccc(-c2nnc(SCc3ccc(C#N)cc3)n2Cc2ccco2)c1 | inconclusive: 8.4% | 
COc1cc(/C=C2\C(=O)N(CCC#N)N=C2C)ccc1OCC(=O)Nc1ccccc1 |  | inconclusive: 18.4 µM [falling, single point]
CC1CCCN(CCCNC(=O)c2cc(Sc3ccc(F)cc3)nc3ccccc23)C1 (stereo not drawn) |  | inconclusive: 35.5 µM [falling, single point]
COc1ccc(C(=O)NCCc2ccc(S(N)(=O)=O)cc2)cc1OC | inconclusive: -1.04% | 
CCOc1ccccc1OCCC(=O)OCC(=O)Nc1c(C)cc(C)cc1C | inactive: -1.1% | 
COc1ccc2cc(CO)c(Cl)nc2c1 | inactive: -17.5% | 
O=C1c2ccccc2C(=O)N1CCc1csc(-c2ccccc2)n1 | inconclusive: 14% | 
CCN(CC)C(=O)c1ccc2c(=O)n(CCOC)c(=S)[nH]c2c1 |  | inconclusive: 2.06 µM [rising, full curve]

SMILES | activity change, negative = inhibition | Potency
Cc1cc(NC(=O)/C=C/c2ccc(Br)cc2)no1 | inconclusive: 14% | 
Cc1cc(C)cc(C(=O)Nc2cccc(NC(=O)c3ccco3)c2)c1 | inconclusive: -19.4% | 
O=C(NCCN1CCN(Cc2ccccc2)CC1)C1CC(=O)N(C2CCCC2)C1 (stereo not drawn) | inactive: -3.72% | 
CSCCC(NC(=O)c1occc1C)C(=O)O (stereo not drawn) | inconclusive: 18.8% | 
CCN(CC)c1ncnc2c1cnn2-c1cc(Cl)ccc1C | inconclusive: 7.24% | 
Cc1c(C(=O)N/N=C/c2ccc(O)c(Br)c2)sc(N)c1C#N |  | inconclusive: 20.6 µM [falling, single point]
COc1ccc(-c2csc(Nc3ncccc3C)n2)cc1OC | inconclusive: -0.503% | 
CCc1ccc(N(C(=O)Cn2nnc(-c3ccccc3)n2)C(C(=O)NC2CCCCC2)c2ccccn2)cc1 (stereo not drawn) | inconclusive: 5.79% | 
Clc1nc(-c2ccccc2)cc(-c2ccccc2)n1 | inactive: 9.25% | 
C=CCN(CC=C)C(=O)Nc1ccc2nc(C)sc2c1 | inconclusive: 0.267% | 
O=C1c2ccccc2C(=O)C1c1ccc(Br)cc1 | inconclusive: -19.5% | 
COc1cc(CNCc2ccc(C(=O)O)cc2)ccc1OCc1ccc(F)cc1 | inactive: -0.216% | 
O=C(COC(=O)C1CC(=O)N(C2CCCCC2)C1)c1ccc(F)cc1 (stereo not drawn) | inactive: 0.157% | 
CCCCCCCC(=O)NNC(=O)CCC(=O)O | inconclusive: 7.1% | 
CC1=NOC(=O)/C1=C/c1ccc(-c2ccc(Cl)cc2)o1 | inconclusive: 13.1% | 
Cc1cccc2sc(NC(=O)C3CCN(C(=O)c4ccco4)CC3)nc12 | inconclusive: 12.8% | 
CC1CCCC(C)N1C(=O)c1ccccc1Nc1ccc(SC(F)F)cc1 (stereo not drawn) | inactive: 11.7% | 
CN(C)c1ccc(CN(C)C2CCCCC2)cc1 | inconclusive: 6.09% | 
CC(C)CCCC(C)NS(=O)(=O)Cc1ccccc1 (stereo not drawn) | inconclusive: 9.46% | 
Clc1ccc(-c2nc3ccccn3c2CN2CCCCC2)cc1 | inconclusive: 16.4% | 
